Data reported in the supplement of paper PMC12067093, “Discovery and optimisation of a covalent ligand for TRIM25 and its application to targeted protein ubiquitination” (Chemical Science, 2025).
This is one part of the list.

Sequences of proteins named here, by UniProt entry; tags and fusion partners are left off. A change or cut given only in a name is not applied to a line headed by its entry.
UniProt P40692: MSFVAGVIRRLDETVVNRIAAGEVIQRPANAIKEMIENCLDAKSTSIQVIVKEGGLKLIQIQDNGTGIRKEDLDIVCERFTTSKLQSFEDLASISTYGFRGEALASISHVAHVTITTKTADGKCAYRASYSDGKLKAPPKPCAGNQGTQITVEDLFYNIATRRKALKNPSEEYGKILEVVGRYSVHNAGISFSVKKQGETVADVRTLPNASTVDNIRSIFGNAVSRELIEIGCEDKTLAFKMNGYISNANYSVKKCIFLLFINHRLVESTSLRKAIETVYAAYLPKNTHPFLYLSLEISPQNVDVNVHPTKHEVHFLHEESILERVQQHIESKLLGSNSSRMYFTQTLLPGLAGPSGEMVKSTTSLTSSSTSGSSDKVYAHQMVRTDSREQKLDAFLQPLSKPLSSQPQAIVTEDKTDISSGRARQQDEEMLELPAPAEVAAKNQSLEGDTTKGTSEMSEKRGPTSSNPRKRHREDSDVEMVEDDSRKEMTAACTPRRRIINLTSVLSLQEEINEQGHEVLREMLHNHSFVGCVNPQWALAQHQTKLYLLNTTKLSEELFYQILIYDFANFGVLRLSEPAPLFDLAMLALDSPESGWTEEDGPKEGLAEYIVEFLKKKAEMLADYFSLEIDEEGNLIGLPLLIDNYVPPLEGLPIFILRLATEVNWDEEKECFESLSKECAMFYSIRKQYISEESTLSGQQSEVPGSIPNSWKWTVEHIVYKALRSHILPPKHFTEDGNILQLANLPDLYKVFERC
UniProt O94851, whole entry, looked up: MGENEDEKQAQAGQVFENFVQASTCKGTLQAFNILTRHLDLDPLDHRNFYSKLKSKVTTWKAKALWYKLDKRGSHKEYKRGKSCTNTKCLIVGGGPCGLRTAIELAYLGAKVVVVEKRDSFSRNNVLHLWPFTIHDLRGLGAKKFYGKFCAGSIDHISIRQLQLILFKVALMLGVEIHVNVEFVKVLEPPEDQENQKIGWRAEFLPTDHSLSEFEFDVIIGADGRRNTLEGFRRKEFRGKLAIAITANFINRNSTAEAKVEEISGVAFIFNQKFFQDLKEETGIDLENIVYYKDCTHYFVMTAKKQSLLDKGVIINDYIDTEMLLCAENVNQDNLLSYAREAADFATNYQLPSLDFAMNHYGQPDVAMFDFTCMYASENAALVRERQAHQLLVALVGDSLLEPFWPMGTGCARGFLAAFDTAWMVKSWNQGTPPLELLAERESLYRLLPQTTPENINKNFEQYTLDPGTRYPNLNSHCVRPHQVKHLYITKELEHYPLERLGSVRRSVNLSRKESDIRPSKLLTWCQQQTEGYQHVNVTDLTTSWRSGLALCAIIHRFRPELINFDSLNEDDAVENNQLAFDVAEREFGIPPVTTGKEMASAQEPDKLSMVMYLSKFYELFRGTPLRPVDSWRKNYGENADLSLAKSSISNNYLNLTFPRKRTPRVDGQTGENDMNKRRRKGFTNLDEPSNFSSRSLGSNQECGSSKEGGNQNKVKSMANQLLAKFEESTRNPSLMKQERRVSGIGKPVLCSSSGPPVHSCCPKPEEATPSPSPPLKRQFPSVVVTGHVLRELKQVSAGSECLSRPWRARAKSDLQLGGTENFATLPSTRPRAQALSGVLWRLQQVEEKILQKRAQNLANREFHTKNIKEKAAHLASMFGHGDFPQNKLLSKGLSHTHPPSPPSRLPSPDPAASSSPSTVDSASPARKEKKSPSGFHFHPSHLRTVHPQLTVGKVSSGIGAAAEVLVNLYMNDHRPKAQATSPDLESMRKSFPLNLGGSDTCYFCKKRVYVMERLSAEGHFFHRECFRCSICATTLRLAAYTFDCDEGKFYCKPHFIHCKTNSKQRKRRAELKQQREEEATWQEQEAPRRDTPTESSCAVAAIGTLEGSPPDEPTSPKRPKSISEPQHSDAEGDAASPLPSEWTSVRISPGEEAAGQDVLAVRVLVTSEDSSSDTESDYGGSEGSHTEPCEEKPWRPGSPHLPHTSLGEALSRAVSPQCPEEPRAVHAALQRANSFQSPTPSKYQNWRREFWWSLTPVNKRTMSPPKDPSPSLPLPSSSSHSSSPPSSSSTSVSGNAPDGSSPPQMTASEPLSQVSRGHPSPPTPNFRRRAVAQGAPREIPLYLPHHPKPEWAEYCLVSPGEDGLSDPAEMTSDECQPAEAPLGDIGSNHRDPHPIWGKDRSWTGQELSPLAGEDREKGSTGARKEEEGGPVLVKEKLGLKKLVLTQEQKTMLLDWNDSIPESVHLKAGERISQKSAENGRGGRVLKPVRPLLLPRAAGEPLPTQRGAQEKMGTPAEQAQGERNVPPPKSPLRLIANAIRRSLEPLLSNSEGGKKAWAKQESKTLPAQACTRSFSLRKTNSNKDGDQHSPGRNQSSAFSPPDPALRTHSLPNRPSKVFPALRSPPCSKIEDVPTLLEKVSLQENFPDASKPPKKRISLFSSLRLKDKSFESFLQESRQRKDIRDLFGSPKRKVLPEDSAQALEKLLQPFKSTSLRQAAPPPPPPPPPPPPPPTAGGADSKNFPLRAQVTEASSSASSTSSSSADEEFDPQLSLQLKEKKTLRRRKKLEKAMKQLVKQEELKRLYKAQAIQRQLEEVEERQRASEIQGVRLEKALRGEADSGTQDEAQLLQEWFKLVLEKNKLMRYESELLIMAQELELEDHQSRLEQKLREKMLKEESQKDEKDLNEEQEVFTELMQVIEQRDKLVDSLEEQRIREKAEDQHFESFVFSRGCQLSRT
UniProt O95822: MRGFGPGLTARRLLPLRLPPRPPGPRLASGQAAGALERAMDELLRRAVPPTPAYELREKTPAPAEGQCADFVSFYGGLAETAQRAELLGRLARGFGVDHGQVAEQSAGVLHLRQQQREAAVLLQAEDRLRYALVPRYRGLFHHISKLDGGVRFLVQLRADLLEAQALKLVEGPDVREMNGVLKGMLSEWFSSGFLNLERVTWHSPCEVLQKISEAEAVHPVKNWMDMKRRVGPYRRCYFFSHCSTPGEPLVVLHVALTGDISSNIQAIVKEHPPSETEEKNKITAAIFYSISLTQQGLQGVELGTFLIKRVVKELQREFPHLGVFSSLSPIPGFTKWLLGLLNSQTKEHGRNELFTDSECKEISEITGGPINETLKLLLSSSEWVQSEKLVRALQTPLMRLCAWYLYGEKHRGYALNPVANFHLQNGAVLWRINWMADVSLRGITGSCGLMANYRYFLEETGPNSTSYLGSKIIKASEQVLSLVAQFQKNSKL
UniProt Q8NHP6: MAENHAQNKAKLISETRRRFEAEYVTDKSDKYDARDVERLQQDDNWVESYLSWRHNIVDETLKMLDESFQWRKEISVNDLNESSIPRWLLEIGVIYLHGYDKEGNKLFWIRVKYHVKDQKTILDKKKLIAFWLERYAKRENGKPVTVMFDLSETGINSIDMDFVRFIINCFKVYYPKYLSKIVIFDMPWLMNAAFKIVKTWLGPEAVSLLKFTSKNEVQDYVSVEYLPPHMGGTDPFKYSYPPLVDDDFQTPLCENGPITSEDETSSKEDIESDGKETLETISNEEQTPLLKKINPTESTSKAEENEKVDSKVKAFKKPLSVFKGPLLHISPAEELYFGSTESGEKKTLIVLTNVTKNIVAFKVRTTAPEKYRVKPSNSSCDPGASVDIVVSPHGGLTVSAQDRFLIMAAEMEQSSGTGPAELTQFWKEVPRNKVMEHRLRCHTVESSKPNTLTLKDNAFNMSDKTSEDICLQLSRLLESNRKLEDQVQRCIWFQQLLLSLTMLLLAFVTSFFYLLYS
UniProt Q9UL63, whole entry, looked up: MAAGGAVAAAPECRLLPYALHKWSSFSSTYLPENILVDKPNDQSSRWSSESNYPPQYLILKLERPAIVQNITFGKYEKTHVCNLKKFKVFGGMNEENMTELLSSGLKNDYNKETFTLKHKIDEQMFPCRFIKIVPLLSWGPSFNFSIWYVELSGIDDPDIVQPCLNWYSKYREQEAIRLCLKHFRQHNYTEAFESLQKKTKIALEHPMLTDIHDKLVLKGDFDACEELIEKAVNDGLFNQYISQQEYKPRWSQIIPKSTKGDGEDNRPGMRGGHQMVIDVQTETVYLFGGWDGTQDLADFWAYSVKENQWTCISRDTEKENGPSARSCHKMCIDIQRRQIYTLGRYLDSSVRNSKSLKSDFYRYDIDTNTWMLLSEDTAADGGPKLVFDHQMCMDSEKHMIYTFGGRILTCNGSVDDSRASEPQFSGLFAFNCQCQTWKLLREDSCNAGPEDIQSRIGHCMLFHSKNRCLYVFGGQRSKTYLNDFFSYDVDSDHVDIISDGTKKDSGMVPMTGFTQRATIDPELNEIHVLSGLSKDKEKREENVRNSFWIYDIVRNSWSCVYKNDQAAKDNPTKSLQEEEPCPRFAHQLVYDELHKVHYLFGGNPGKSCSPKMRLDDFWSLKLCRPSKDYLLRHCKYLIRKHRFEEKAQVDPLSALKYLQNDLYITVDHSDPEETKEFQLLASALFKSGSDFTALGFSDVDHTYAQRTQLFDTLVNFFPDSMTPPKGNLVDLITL
UniProt O96033: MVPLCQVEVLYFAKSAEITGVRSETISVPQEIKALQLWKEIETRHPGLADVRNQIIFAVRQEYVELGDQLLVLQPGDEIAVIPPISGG
UniProt Q14149: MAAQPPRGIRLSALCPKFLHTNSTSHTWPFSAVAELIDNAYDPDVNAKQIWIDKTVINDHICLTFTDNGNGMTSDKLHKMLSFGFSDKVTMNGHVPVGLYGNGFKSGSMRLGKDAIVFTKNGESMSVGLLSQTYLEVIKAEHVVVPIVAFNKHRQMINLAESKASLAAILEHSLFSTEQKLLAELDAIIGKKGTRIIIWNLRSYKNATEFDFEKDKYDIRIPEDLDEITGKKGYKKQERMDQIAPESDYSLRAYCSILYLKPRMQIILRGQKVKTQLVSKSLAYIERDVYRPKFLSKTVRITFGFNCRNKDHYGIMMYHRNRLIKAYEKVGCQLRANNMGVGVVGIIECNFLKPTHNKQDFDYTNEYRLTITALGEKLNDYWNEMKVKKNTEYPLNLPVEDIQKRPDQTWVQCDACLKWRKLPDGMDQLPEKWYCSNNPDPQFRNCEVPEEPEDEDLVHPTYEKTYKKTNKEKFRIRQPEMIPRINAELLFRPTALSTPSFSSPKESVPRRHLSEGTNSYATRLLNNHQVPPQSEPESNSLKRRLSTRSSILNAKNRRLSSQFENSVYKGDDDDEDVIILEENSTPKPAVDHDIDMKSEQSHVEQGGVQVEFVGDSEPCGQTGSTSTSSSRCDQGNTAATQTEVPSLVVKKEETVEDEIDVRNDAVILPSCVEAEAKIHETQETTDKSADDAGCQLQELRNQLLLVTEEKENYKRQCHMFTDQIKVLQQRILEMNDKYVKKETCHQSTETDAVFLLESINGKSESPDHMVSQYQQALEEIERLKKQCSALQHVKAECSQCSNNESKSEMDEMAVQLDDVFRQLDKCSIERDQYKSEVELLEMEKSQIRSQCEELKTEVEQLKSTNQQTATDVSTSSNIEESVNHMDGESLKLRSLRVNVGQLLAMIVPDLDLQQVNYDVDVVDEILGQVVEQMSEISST
UniProt Q8TDZ2: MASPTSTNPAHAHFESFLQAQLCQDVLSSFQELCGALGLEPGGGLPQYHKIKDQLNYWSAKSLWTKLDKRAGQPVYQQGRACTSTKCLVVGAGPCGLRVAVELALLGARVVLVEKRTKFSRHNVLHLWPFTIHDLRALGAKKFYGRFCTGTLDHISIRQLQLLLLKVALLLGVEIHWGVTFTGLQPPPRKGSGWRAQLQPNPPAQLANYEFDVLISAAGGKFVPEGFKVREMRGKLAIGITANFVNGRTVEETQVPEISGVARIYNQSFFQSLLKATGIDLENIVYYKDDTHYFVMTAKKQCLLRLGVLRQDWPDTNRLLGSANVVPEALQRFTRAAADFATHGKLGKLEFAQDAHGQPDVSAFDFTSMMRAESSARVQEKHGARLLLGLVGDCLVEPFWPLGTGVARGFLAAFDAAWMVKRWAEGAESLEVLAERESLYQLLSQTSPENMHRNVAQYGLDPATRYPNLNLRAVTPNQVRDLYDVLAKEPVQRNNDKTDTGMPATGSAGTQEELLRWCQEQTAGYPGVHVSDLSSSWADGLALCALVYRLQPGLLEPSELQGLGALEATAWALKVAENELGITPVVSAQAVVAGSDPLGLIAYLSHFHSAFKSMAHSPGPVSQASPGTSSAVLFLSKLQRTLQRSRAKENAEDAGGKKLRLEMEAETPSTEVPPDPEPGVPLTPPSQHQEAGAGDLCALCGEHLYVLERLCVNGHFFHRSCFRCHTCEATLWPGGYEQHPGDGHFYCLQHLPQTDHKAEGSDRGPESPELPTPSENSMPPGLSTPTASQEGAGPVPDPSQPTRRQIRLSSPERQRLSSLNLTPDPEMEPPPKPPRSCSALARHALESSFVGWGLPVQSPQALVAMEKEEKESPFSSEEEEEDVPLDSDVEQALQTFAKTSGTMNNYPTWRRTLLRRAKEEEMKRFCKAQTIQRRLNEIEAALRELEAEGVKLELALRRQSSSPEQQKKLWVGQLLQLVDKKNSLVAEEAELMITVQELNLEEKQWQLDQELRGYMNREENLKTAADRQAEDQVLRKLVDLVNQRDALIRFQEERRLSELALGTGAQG

compound: CC1Cc2ccccc2N1C(=O)C1CCCN(C1)C(=O)CCl (mixture of isomers) [TRIM25 ligand 11 (diastereomer mixture)]; assay: probe-labelled cysteine peptide fold change vs DMSO (competition) (log2 fold change); higher = less target engagement (more negative = stronger competition); conditions: 10 µM; THP-1; incubation time: 4 h
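Note: competitive chemoproteomic profiling in live THP-1 cells with an iodoacetamide desthiobiotin (IA-DTB) probe, comparing probe-labelled peptide intensities in compound-treated cells against DMSO-treated controls.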

| Target | probe-labelled cysteine peptide fold change |
| --- | --- |
| MIF4GD_A9UHW6_150_EEEVDCLVLQLHR (UniProt A9UHW6) | 0.222 |
| MILR1_Q7Z6M3_297_EESVPEVGSRPCVSTAQDEAK (UniProt Q7Z6M3) | -0.147 |
| MIS18A_Q9NYP9_85_AQLEEEAAAAEERPLVFLCSGCR (UniProt Q9NYP9) | -0.0813 |
| MMS19_Q96T76_331_EVFQTASERVEAEGLAALHSLTACLSR (UniProt Q96T76) | -0.133 |
| MLH1_P40692_77_KEDLDIVCER (UniProt P40692) | 0.0825 |
| MOV10_Q9HCE1_650_LVSAQFPIDHFTHIFIDEAGHCMEPESLVAIAGLMEVK (UniProt Q9HCE1) | 0.00257 |
| MLH1_P40692_233_ELIEIGCEDK (UniProt P40692) | 0.0724 |
| MRPL21_Q7Z2W9_203_INSIEIAPCLL (UniProt Q7Z2W9) | 0.105 |
| MICAL2_O94851_411_QAHQLLVALVGDSLLEPFWPMGTGCAR (UniProt O94851) | -0.201 |
| MINK1_Q8N4C8_129_EDCIAYICR (UniProt Q8N4C8) | 0.00524 |
| MLYCD_O95822_206_VTWHSPCEVLQK (UniProt O95822) | 0.00519 |
| MOSPD2_Q8NHP6_442_CHTVESSKPNTLTLK (UniProt Q8NHP6) | 0.0234 |
| MKI67_P46013_2706_IPCESPPLEVVDTTASTK (UniProt P46013) | -0.107 |
| MIA3_Q5JRA6_1513_AGLEDECK (UniProt Q5JRA6) | 0.0174 |
| MRPL2_Q5T653_213_AAGTCGVLLR (UniProt Q5T653) | -0.0351 |
| MINPP1_Q9UNW1_337_SSCTLFQDIFQHLDK (UniProt Q9UNW1) | 0.226 |
| MRPL22_Q9NWU5_70_RPAEIYHCR (UniProt Q9NWU5) | 0.0067 |
| MKLN1_Q9UL63_411_ILTCNGSVDDSR (UniProt Q9UL63) | 0.0272 |

| Target | probe-labelled cysteine peptide fold change |
| --- | --- |
| MICAL2_O94851_478_YPNLNSHCVRPHQVK (UniProt O94851) | 0.0393 |
| MOCS2_O96033_5_MVPLCQVEVLYFAK (UniProt O96033) | -0.0724 |
| MRGBP_Q9NV56_170_NSSDLGCK (UniProt Q9NV56) | -0.192 |
| MIA3_Q5JRA6_61_GEALEDFTGPDCR (UniProt Q5JRA6) | 0.0774 |
| MGST1_P10620_50_VFANPEDCVAFGK (UniProt P10620) | 0.0582 |
| MKNK1_Q9BUB5_219_DLKPENILCESPEK (UniProt Q9BUB5) | -0.0739 |
| MRPL37_Q9BZE1_104_DQACYIFHHR (UniProt Q9BZE1) | 0.0711 |
| MRPL38_Q96DV4_290_QDQPIDFSEDARPSPCYQLAQR (UniProt Q96DV4) | -0.028 |
| MORC3_Q14149_671_NDAVILPSCVEAEAK (UniProt Q14149) | 0.0847 |
| MILR1_Q7Z6M3_329_EQEACDSYK (UniProt Q7Z6M3) | -0.0428 |
| MICAL1_Q8TDZ2_87_CLVVGAGPCGLR (UniProt Q8TDZ2) | 0.221 |
| MLH1_P40692_672_ECFESLSK (UniProt P40692) | 0.115 |
| MRC2_Q9UBG0_213_EDGHLWCATTQDYGKDER (UniProt Q9UBG0) | -0.0873 |
| MRPL39_Q9NYK5_133_DCDPGEVNK (UniProt Q9NYK5) | -0.0874 |
| MKI67_P46013_1007_MPCQSLQPEPINTPTHTK (UniProt P46013) | -0.17 |
| MKRN1_Q9UHC7_305_FGILSNCNHTYCLK (UniProt Q9UHC7) | -0.0456 |
| MLKL_Q8NB16_437_RQQEPLGEDCPSELR (UniProt Q8NB16) | 0.111 |
| MORC3_Q14149_744_ETCHQSTETDAVFLLESINGK (UniProt Q14149) | 0.143 |

same assay, conditions: 50 µM; THP-1; incubation time: 4 h

| Target | probe-labelled cysteine peptide fold change |
| --- | --- |
| MILR1_Q7Z6M3_297_EESVPEVGSRPCVSTAQDEAK (UniProt Q7Z6M3) | -0.191 |
| MMS19_Q96T76_331_EVFQTASERVEAEGLAALHSLTACLSR (UniProt Q96T76) | 0.139 |
| MLH1_P40692_77_KEDLDIVCER (UniProt P40692) | -0.147 |
| MLH1_P40692_233_ELIEIGCEDK (UniProt P40692) | 0.035 |
| MRPL21_Q7Z2W9_203_INSIEIAPCLL (UniProt Q7Z2W9) | -0.189 |
| MICAL2_O94851_411_QAHQLLVALVGDSLLEPFWPMGTGCAR (UniProt O94851) | -0.00304 |
| MLYCD_O95822_206_VTWHSPCEVLQK (UniProt O95822) | -0.0314 |
| MOSPD2_Q8NHP6_442_CHTVESSKPNTLTLK (UniProt Q8NHP6) | -0.101 |
| MKI67_P46013_2706_IPCESPPLEVVDTTASTK (UniProt P46013) | -0.0987 |
| MRPL2_Q5T653_213_AAGTCGVLLR (UniProt Q5T653) | -0.00691 |
| MINPP1_Q9UNW1_337_SSCTLFQDIFQHLDK (UniProt Q9UNW1) | 0.154 |
| MRPL22_Q9NWU5_70_RPAEIYHCR (UniProt Q9NWU5) | 0.0175 |
| MKLN1_Q9UL63_411_ILTCNGSVDDSR (UniProt Q9UL63) | -0.0506 |
| MICAL2_O94851_478_YPNLNSHCVRPHQVK (UniProt O94851) | -0.153 |
| MOCS2_O96033_5_MVPLCQVEVLYFAK (UniProt O96033) | -0.0621 |
| MRGBP_Q9NV56_170_NSSDLGCK (UniProt Q9NV56) | -0.0723 |
| MIA3_Q5JRA6_61_GEALEDFTGPDCR (UniProt Q5JRA6) | -0.107 |
| MGST1_P10620_50_VFANPEDCVAFGK (UniProt P10620) | 0.0232 |
| MKNK1_Q9BUB5_219_DLKPENILCESPEK (UniProt Q9BUB5) | -0.134 |
| MRPL37_Q9BZE1_104_DQACYIFHHR (UniProt Q9BZE1) | 0.119 |
| MORC3_Q14149_671_NDAVILPSCVEAEAK (UniProt Q14149) | -0.059 |
| MILR1_Q7Z6M3_329_EQEACDSYK (UniProt Q7Z6M3) | -0.188 |
| MICAL1_Q8TDZ2_87_CLVVGAGPCGLR (UniProt Q8TDZ2) | 0.325 |
| MLH1_P40692_672_ECFESLSK (UniProt P40692) | -0.00526 |
| MRC2_Q9UBG0_213_EDGHLWCATTQDYGKDER (UniProt Q9UBG0) | -0.0151 |
| MRPL39_Q9NYK5_133_DCDPGEVNK (UniProt Q9NYK5) | -0.21 |
| MKI67_P46013_1007_MPCQSLQPEPINTPTHTK (UniProt P46013) | -0.324 |
| MKRN1_Q9UHC7_305_FGILSNCNHTYCLK (UniProt Q9UHC7) | 0.0154 |
| MLKL_Q8NB16_437_RQQEPLGEDCPSELR (UniProt Q8NB16) | -0.0546 |
| MORC3_Q14149_744_ETCHQSTETDAVFLLESINGK (UniProt Q14149) | -0.605 |
